Assay: general procedure: solution-phase peptide synthesis; DCC/HOBt

Substance | step yield (coupling step) [% yield] | step yield (late stage modification step)
Boc-Leu-(3S,4S)-AHPPA-Leu-Phe-OMe | 87 | 
Boc-Leu-(3S,4S)-Sta-Val-Phe-OMe | 83 | 
N-Phenoxyacetyl-L-leucyl-4(S)-amino-3(S)-hydroxy-5-phenylpentanoyl-L-leucyl-L-phenylalanine methyl ester |  | 82% yield
N-Phenoxyacetyl-L-leucyl-(3S,4S)-statyl-L-leucyl-L-phenylalanine methyl ester |  | 73% yield
N-Phenoxyacetyl-L-leucyl-(3S,4S)-statyl-L-valyl-L-phenylalanine methyl ester |  | about 70% yield

— US4384994A (Merck & Co., Inc., priority 1981, dated 1983)
